Experimental data reported in publication PMC10865846.

Chains of the proteins cited; added tags and fusions are not shown.
UniProt Q9ULT8: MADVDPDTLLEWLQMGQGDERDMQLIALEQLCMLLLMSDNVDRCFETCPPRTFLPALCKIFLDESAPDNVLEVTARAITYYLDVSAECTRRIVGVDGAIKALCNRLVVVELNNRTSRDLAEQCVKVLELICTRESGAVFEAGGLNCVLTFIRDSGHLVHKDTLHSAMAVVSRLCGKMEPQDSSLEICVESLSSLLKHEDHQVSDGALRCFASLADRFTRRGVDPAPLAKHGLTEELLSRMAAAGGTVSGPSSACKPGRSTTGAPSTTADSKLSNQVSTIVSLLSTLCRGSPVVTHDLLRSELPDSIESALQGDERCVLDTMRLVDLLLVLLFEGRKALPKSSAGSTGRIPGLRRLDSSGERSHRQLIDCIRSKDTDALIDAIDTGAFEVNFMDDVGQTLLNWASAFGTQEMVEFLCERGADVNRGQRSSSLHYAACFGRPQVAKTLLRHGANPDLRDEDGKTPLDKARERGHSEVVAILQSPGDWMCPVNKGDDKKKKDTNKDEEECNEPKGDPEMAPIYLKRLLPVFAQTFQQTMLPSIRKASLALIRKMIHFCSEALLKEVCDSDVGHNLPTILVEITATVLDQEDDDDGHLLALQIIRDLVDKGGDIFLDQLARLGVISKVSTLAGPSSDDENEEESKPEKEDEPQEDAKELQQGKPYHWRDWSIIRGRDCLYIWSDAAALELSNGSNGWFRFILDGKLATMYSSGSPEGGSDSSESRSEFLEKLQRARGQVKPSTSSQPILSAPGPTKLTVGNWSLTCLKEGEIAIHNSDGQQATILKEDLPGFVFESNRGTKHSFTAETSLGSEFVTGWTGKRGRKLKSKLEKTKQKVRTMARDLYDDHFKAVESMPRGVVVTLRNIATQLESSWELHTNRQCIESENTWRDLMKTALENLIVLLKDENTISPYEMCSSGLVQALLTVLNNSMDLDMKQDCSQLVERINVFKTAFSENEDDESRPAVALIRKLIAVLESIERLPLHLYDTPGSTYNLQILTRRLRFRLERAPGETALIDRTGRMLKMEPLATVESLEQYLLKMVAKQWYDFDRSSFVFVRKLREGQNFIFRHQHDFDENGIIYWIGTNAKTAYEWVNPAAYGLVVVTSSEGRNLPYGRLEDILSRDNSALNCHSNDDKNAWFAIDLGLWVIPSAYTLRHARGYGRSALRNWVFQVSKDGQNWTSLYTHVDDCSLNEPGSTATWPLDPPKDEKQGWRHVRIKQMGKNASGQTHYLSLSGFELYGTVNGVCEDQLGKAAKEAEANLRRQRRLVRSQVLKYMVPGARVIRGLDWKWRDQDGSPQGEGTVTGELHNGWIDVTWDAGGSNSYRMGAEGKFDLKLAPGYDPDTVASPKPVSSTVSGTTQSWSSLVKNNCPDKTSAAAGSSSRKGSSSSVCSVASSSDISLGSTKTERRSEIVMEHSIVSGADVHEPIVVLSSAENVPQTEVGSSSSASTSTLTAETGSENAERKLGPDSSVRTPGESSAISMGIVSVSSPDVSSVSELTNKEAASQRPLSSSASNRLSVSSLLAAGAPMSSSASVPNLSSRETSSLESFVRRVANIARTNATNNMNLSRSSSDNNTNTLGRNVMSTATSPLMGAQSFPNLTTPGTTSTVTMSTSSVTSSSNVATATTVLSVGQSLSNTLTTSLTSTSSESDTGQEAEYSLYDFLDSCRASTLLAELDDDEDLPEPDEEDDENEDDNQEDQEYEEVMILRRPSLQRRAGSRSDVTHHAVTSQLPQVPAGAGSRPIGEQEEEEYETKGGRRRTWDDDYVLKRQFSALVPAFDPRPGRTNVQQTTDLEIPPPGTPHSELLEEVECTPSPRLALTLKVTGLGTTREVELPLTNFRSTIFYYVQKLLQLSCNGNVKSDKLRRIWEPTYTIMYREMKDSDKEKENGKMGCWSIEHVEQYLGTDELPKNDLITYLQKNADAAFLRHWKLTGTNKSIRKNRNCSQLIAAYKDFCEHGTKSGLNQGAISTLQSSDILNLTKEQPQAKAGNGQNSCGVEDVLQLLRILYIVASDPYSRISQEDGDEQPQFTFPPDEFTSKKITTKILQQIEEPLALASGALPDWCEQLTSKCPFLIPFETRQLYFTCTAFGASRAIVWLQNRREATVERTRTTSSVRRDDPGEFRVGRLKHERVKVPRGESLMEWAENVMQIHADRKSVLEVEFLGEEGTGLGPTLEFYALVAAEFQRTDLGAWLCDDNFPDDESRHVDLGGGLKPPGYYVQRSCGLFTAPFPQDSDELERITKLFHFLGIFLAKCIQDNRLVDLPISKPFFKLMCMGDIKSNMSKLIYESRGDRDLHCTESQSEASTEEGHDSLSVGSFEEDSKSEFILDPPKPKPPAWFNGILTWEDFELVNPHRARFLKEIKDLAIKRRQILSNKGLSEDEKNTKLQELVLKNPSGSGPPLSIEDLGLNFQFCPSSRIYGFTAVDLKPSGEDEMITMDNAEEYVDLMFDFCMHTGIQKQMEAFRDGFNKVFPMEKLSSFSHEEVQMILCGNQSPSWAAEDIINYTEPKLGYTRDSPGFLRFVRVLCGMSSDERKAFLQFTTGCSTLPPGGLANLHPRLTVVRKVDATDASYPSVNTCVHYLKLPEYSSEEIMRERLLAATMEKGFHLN

Molecular target: Strep-NSP8 (SARS-CoV-2 non-structural protein 8) (SARS-CoV-2) (UniProt P0DTD1)
Test: affinity purification with mass spectrometry

Substance: HECT domain E3 ubiquitin protein ligase 1 (HECTD1), endogenous (from UniProt Q9ULT8 1-2610)
- binding: binds

No constants are given. Whether binding was seen depends on the method and setting. Binding seen in cells or lysates may run through a third protein. These calls come from enrichment with a bait or labelling near it, and not all partners need be listed.
